For some assays here: For expression read-outs the peptide stands for its source gene, whose mRNA was measured; the gene is not named for every peptide.
Legend:
[1] = tested on: HLA-A*02; experiment: Identification and relative LC-MS quantitation of HLA-A*02-presented tumor-associated peptides on tissue samples (presentation profiles, Tables 13A, 13B, 15, FIG. 1); parameters: species or system human; key to Presentation score NHL / Presentation score CLL / Presentation score BRCA / Presentation score AML / Presentation score GB / Presentation score NSCLC / Presentation score GBC_CCC / Presentation score UEC / Presentation score MEL / Presentation score OSCAR / Presentation score GC / Presentation score UBC / Presentation score OC / Presentation score RCC / Presentation score CRC / Presentation score PCA / Presentation score HCC / Presentation score PC / Presentation score SCLC: specifically presented on tumors (++++); very highly over-presented on tumors compared to a panel of normal tissues (+++); highly over-presented on tumors compared to a panel of normal tissues (++); over-presented on tumors compared to a panel of normal tissues (+)
[2] = tested on: source genes (mRNA); experiment: Gene and exon expression of source genes, TCGA tumor samples compared with normal tissue samples (Lonsdale, 2013) (Table 17); parameters: species or system human
[3] = tested on: source genes (mRNA); experiment: Expression profiling of source genes by in-house RNASeq of tumor and normal tissues (Table 18, FIG. 2); parameters: species or system human; key: very highly over-expressed in tumors compared to a panel of normal tissues (+++); highly over-expressed in tumors compared to a panel of normal tissues (++); over-expressed in tumors compared to a panel of normal tissues (+); conditions: source gene of peptide

Substance: 137: peptide found in RIF1 (gene looked up) (EIASITEQL; listed as Homo sapiens) [compound 137]
- Presentation score GB ([1]; HLA-A*02 peptides, glioblastoma (N = 41) vs panel of normal tissues (N = 262)): +++
- Presentation score NSCLC ([1]; HLA-A*02 peptides, non-small cell lung cancer (N = 90) vs panel of normal tissues (N = 262)): +++
- Peptide Presentation on cancer entities ([1]; Table 13A, HLA-A*02-binding tumor-associated peptides, cancer entities on which the peptide was found presented): GB, NSCLC
- Over-expression category of source gene (target coverage), BRCA ([2]; BRCA = Breast cancer (N = 1104), tumors more than 2-fold above highest 75% percentile of normal tissues): B (>= 20% of tumors above the cutoff, but <50%)
- Over-expression category of source gene (target coverage), DLBC ([2]; DLBC = Lymphoid neoplasm diffuse large B-cell lymphoma (N = 48), same cutoff): C (>=5% of tumors above the cutoff, but <20%)
- Over-expression category of source gene (target coverage), ESCA ([2]; ESCA = Esophageal cancer (N = 185), same cutoff): A (>=50% of tumors above the cutoff)
- Over-expression category of source gene (target coverage), KIRC ([2]; KIRC = Clear cell kidney carcinoma (N = 534), same cutoff): B (>= 20% of tumors above the cutoff, but <50%)
- Over-expression category of source gene (target coverage), KIRP ([2]; KIRP = Papillary kidney carcinoma (N = 291), same cutoff): C (>=5% of tumors above the cutoff, but <20%)
- Over-expression category of source gene (target coverage), LAML ([2]; LAML = Acute Myeloid Leukemia (N = 173), same cutoff): A (>=50% of tumors above the cutoff)
- Over-expression category of source gene (target coverage), LGG ([2]; LGG = Lower grade glioma (N = 534), same cutoff): C (>=5% of tumors above the cutoff, but <20%)
- Over-expression category of source gene (target coverage), LUAD ([2]; LUAD = Lung adenocarcinoma (N = 517), same cutoff): C (>=5% of tumors above the cutoff, but <20%)
- Over-expression category of source gene (target coverage), LUSC ([2]; LUSC = Lung squamous cell carcinoma (N = 503), same cutoff): C (>=5% of tumors above the cutoff, but <20%)
- Over-expression category of source gene (target coverage), PAAD ([2]; PAAD = Pancreatic ductal adenocarcinoma (N = 179), same cutoff): C (>=5% of tumors above the cutoff, but <20%)
- Over-expression category of source gene (target coverage), PRAD ([2]; PRAD = Prostate adenocarcinoma (N = 498), same cutoff): C (>=5% of tumors above the cutoff, but <20%)
- Over-expression category of source gene (target coverage), READ ([2]; READ = Colon and rectal adenocarcinoma (N = 167), same cutoff): C (>=5% of tumors above the cutoff, but <20%)
- Over-expression category of source gene (target coverage), SKCM ([2]; SKCM = Skin cutaneous melanoma (N = 473), same cutoff): C (>=5% of tumors above the cutoff, but <20%)
- Over-expression category of source gene (target coverage), STAD ([2]; STAD = Stomach adenocarcinoma (N = 415), same cutoff): A (>=50% of tumors above the cutoff)
- Expression score CRC ([3]; colorectal cancer (N = 20) vs panel of normal tissues): +
- Expression score OSCAR ([3]; esophageal cancer incl. gastric-esophageal junction (N = 11) vs panel of normal tissues): +
- Expression score GBC_CCC ([3]; gallbladder adenocarcinoma and cholangiocarcinoma (N = 3) vs panel of normal tissues): +
- Expression score GB ([3]; glioblastoma (N = 24) vs panel of normal tissues): +
- Expression score NHL ([3]; non-Hodgkin lymphoma (N = 10) vs panel of normal tissues): +
- Expression score NSCLC ([3]; non-small cell lung cancer (N = 11) vs panel of normal tissues): +
- Expression score OC ([3]; ovarian cancer (N = 12) vs panel of normal tissues): +
- Expression score SCLC ([3]; small cell lung cancer (N = 10) vs panel of normal tissues): +
- Expression score UEC ([3]; uterine cancer (N = 10) vs panel of normal tissues): +

Source: patent publication US20170189504A1, “NOVEL PEPTIDES AND COMBINATION OF PEPTIDES FOR USE IN IMMUNOTHERAPY AGAINST VARIOUS CANCERS” (immatics biotechnologies GmbH, priority 2015, published 2017)
